Results from article PMC8934631, “Transcriptomic and genomic studies classify NKL54 as a histone deacetylase inhibitor with indirect influence on MEF2-dependent transcription” (Nucleic Acids Research, 2022).
Results are given in words; binding and its absence hold for the method and conditions named. Binding seen in cells or lysates may run through a third protein. Some entries that bind do so weakly or less than the wild type.

Sequences of proteins named here, by UniProt entry; tags and fusion partners are left off.
UniProt P56524: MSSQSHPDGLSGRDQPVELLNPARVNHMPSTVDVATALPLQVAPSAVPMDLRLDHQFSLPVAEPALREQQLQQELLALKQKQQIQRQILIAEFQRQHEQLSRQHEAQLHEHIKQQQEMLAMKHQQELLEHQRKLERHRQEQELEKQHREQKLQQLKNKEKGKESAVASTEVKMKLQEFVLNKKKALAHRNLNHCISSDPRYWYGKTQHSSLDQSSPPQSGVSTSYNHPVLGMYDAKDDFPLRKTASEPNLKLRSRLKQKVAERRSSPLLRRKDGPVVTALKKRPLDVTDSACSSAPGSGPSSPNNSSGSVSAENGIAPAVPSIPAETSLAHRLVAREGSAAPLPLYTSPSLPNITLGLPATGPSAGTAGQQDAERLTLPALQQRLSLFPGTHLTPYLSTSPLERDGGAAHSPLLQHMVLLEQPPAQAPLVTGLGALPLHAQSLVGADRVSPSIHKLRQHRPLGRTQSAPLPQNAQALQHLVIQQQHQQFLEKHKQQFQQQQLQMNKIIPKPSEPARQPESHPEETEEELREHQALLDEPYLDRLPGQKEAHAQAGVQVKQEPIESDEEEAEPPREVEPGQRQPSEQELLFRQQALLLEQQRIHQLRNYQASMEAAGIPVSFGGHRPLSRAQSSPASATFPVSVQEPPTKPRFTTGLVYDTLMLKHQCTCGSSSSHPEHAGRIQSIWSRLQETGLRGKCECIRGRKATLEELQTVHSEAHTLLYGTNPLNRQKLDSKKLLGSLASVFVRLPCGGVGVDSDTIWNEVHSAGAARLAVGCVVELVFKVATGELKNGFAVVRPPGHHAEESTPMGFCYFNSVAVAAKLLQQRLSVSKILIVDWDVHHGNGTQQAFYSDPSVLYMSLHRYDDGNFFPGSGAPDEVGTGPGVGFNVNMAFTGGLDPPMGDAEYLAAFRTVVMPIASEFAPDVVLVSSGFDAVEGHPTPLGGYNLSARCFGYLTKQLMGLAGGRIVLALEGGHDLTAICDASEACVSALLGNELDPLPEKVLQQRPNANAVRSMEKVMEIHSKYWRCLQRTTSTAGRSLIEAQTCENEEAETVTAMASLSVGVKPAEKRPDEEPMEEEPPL
UniProt Q14814: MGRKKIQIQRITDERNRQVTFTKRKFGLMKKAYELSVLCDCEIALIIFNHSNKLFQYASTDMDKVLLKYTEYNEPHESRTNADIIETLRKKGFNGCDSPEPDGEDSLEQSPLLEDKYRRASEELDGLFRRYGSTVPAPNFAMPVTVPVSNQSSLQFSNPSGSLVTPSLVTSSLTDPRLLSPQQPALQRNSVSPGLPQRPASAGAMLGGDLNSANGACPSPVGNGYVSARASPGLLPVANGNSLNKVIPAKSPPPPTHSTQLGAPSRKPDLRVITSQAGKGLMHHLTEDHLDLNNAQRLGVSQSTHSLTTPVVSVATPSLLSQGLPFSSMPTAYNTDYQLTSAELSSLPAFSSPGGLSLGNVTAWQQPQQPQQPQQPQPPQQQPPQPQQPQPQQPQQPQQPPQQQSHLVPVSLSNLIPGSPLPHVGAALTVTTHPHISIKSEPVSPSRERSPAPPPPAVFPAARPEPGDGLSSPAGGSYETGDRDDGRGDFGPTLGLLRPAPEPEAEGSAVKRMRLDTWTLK

Target: HDAC4 (human (endogenous in SK-UT-1)) (UniProt P56524)
Assay: co-IP; SK-UT-1 cells treated 12 h with DMSO, SAHA 2.5 μM or NKL54 5 μM; hypotonic lysis buffer with 1% Triton X-100; immunoprecipitation with 1.5 μg anti-HDAC4 antibody, immunoblot with anti-MEF2D

binding: binds
Substance: MEF2D (from UniProt Q14814 1-521)
